In PMC2763855:
These are yes or no findings as the source states them, for the method shown. For part of these data: Binding seen in cells or lysates may run through a third protein. Some results given as binding are weak or reduced against the parent protein; the word gives no strength. Sequences can lack the tags named with a protein.

Chains of the proteins cited; added tags and fusions are not shown.
UniProt Q9Y5X1: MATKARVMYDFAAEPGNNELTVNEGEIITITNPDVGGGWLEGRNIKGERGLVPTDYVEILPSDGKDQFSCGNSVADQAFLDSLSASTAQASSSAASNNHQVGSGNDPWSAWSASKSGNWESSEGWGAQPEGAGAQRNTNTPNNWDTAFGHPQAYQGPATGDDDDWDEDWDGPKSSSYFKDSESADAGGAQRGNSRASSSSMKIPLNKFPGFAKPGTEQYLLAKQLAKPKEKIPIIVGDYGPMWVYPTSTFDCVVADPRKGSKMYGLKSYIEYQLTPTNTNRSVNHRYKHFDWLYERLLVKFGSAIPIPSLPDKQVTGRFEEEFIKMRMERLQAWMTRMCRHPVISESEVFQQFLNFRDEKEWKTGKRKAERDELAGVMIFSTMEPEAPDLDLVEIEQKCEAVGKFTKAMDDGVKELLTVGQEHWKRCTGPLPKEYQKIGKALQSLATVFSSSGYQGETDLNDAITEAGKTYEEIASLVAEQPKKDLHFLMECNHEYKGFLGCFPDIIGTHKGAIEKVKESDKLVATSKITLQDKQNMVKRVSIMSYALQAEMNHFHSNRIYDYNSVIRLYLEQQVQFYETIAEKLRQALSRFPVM

Columns and labels:
[1] = target: T1, GST-Itk SH3 domain fusion protein (UniProt Q08881); assay: pull-down; recombinant GST-Itk SH3 domain fusion protein; whole cell lysates of stably FasL transfected KFL9 and JFL39.1 cells; Western blot for FasL with mAb G247-4; only the target purified
T1 sequence: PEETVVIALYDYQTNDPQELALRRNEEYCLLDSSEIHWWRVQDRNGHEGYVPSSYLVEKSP

[2] = target: T2, GST-hFasL(1-80) fusion protein (human) (UniProt P48023); assay: pull-down; GST-hFasL(1-80) or GST with glutathione sepharose beads, overnight; NP-40 lysates of HEK 293 T cells transfected with HA-tagged sorting nexins; four washes with NP-40 lysis buffer; Western blot with anti-HA mAb 3F10; only the target purified
T2 sequence: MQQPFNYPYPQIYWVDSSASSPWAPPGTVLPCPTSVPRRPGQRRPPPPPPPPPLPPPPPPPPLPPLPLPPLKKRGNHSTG

[3] = target: T2, GST-hFasL(1-80) fusion protein (human); assay: phage display library panning; GST-hFasL(1-80) covalently bound to epoxy magnetic beads (Dynabeads M-270); library of 288 human SH3 domains as pVIII fusions on phage, 6 x 10^9 PFU, 1.5 h at room temperature; washes with 0.15% or 0.5% Tween-20; bound clones sequenced; domains also found in the GST panning excluded; only the target purified

FasL stably expressed in KFL9 cells (from UniProt P48023 1-281)
binding [1]: binds

HA-tagged full length SNX9 (from UniProt Q9Y5X1 1-595)
binding [2]: binds

FasL stably expressed in JFL39.1 cells (from UniProt P48023 1-281)
binding [1]: binds

B1: third SH3 domain of putative E3 ubiquitin protein ligase SH3RF2, displayed on phage (domain or fragment, UniProt Q8TEC5 380-441)
chain: LSANMFVALHSYSAHGPDELDLQKGEGVRVLGKCQDGWLRGVSLVTGRVGIFPNNYVIPIFR
binding [3]: binds

B2: HA-tagged full length SNX33 (protein, UniProt Q8WV41 1-574)
chain: MALKGRALYDFHSENKEEISIQQDEDLVIFSETSLDGWLQGQNSRGETGLFPASYVEIVRSGISTNHADYSSSPAGSPGAQVSLYNSPSVASPARSGGGSGFLSNQGSFEEDDDDDWDDWDDGCTVVEEPRAGGLGTNGHPPLNLSYPGAYPSQHMAFRPKPPLERQDSLASAKRGSVVGRNLNRFSCFVRSGVEAFILGDVPMMAKIAETYSIEMGPRGPQWKANPHPFACSVEDPTKQTKFKGIKSYISYKLTPTHAASPVYRRYKHFDWLYNRLLHKFTVISVPHLPEKQATGRFEEDFIEKRKRRLILWMDHMTSHPVLSQYEGFQHFLSCLDDKQWKMGKRRAEKDEMVGASFLLTFQIPTEHQDLQDVEDRVDTFKAFSKKMDDSVLQLSTVASELVRKHVGGFRKEFQKLGSAFQAISHSFQMDPPFCSEALNSAISHTGRTYEAIGEMFAEQPKNDLFQMLDTLSLYQGLLSNFPDIIHLQKGAFAKVKESQRMSDEGRMVQDEADGIRRRCRVVGFALQAEMNHFHQRRELDFKHMMQNYLRQQILFYQRVGQQLEKTLRMYDNL
binding [2]: binds

B3: fifth SH3 domain of SH3 and PX domain containing protein 2A, displayed on phage (domain or fragment, UniProt Q5TCZ1 1072-1133)
chain: NLKDVYVSIADYEGDEETAGFQEGVSMEVLERNPNGWWYCQILDGVKPFKGWVPSNYLEKKN
binding [3]: binds

B4: SH3 domain 2/2 of vinexin, displayed on phage (domain or fragment, UniProt O60504 454-515)
chain: LEYGEAVAQYTFKGDLEVELSFRKGEHICLIRKVNENWYEGRITGTGRQGIFPASYVQVSRE
binding [3]: binds

B5: HA-tagged full length SNX18 (protein, UniProt Q96RF0 1-628)
chain: MALRARALYDFRSENPGEISLREHEVLSLCSEQDIEGWLEGVNSRGDRGLFPASYVQVIRAPEPGPAGDGGPGAPARYANVPPGGFEPLPVAPPASFKPPPDAFQALLQPQQAPPPSTFQPPGAGFPYGGGALQPSPQQLYGGYQASQGSDDDWDDEWDDSSTVADEPGALGSGAYPDLDGSSSAGVGAAGRYRLSTRSDLSLGSRGGSVPPQHHPSGPKSSATVSRNLNRFSTFVKSGGEAFVLGEASGFVKDGDKLCVVLGPYGPEWQENPYPFQCTIDDPTKQTKFKGMKSYISYKLVPTHTQVPVHRRYKHFDWLYARLAEKFPVISVPHLPEKQATGRFEEDFISKRRKGLIWWMNHMASHPVLAQCDVFQHFLTCPSSTDEKAWKQGKRKAEKDEMVGANFFLTLSTPPAAALDLQEVESKIDGFKCFTKKMDDSALQLNHTANEFARKQVTGFKKEYQKVGQSFRGLSQAFELDQQAFSVGLNQAIAFTGDAYDAIGELFAEQPRQDLDPVMDLLALYQGHLANFPDIIHVQKGKAWPLEQVIWSVLCRLKGATLTAVPLWVSESYSTGEEASRDVDAWVFSLECKLDCSTGSFLLEYLALGNEYSFSKVQRVPLMTVLSF
binding [2]: binds

B6: fourth SH3 domain of SH3 and PX domain containing protein 2B, displayed on phage (domain or fragment, UniProt A1X283 850-911)
chain: LKDSLYVAVADFEGDKDTSSFQEGTVFEVREKNSSGWWFCQVLSGAPSWEGWIPSNYLRKKP
binding [3]: binds
